The record followed here is patent US20030022345A1 (Human Genome Sciences, published 2003).

Amino acid sequences for entries named in this document (tags omitted). Residues count along the entry.
UniProt Q14152, 2-1382: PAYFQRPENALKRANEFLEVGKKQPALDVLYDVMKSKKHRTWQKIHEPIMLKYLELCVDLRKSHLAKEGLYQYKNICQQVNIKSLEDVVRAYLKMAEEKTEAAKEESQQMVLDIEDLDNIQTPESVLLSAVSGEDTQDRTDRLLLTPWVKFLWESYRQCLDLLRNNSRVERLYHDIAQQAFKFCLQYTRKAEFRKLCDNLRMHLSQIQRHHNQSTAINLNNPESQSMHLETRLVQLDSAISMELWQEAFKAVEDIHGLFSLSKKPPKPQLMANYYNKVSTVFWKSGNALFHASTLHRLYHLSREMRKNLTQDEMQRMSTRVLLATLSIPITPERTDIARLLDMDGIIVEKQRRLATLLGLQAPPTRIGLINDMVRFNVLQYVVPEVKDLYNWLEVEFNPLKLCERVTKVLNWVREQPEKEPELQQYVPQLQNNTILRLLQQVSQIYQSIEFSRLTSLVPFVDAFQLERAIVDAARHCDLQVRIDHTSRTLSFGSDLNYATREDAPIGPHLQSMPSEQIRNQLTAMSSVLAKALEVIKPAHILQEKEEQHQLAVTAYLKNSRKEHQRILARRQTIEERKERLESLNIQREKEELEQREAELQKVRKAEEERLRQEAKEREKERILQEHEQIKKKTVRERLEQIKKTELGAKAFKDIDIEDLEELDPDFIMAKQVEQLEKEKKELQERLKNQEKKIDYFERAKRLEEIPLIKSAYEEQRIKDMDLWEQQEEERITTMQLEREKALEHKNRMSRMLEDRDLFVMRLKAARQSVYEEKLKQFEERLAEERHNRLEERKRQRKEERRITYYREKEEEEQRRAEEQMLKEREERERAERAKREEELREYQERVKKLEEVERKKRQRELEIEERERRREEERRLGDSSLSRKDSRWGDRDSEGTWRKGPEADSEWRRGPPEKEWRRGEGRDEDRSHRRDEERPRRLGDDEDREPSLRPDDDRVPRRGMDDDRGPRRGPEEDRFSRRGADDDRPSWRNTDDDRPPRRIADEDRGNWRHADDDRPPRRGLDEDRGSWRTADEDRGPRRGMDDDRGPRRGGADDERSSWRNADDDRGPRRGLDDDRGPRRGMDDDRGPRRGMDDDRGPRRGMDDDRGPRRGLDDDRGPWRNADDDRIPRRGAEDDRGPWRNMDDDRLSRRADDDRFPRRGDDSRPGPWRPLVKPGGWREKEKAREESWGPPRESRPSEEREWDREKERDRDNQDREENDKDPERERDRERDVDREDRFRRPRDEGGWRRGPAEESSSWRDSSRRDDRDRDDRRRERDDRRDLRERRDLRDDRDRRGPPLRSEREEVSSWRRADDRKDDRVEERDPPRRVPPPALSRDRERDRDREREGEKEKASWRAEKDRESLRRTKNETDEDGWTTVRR

This test concerns the target T1, p170 subunit of eIF3 (170 kDa protein in HeLa cytoplasmic extract) (human (HeLa cells), UniProt Q14152 2-1382).
T1 construct: Denatured, on a blot after SDS-PAGE; also called pl70
Description: Far Western, 32P-labeled probe on blotted HeLa cytoplasmic extract. The procedure: The membranes were blocked overnight with 5% milk in HBB buffer (25 mM HEPES-KOH, pH 7.5, 25 mM NaCl, 5 mM MgCl, 1 mM DTT), and incubated 4 hours in hybridization buffer (20 mM HEPES-KOH pH 7.5, 75 mM KCl, 2.5 mM MgCl , 0.1 mM EDTA, 1 mM DTT, 0.1% NP-40, 1% milk) containing the ³²P-labeled FLAG-HMK- or GST-FLAG-HMK-hPrt1 at 250,000 cpm/ml and unlabeled purified GST at 1 μg/ml. The membranes were washed 3 times with hybridization buffer and processed for autoradiography.
To further substantiate the finding that hPrt1 is a subunit of human eIF3, we examined the possibility that hPrt1 interacts directly with one or more eIF3 subunits. To this end, hPrt1 was tagged with a FLAG peptide linked to a heart muscle kinase site (FLAG-HMK) or fused to a glutathione-S-transferase-FLAG-HMK sequence (GST-FLAG-HMK). We opted to use fragments of hPrt1 rather than the full length protein due to the low yield and extensive degradation of full length hPrt1 in E. coli. The proteins were purified using a FLAG antibody or glutathione-sepharose resin, and were ³²P-labeled with heart muscle kinase. The labeled proteins were then used to detect interacting proteins by the Far Western assay with HeLa cytoplasmic extracts, rabbit reticulocyte lysate and different preparations of eIF3. […] The hPrt1 probes reacted with a 140 kDa protein in eIF3 preparation 1 and 140 and 170 kDa polypeptides in eIF3 preparation 2. […]

B1: N90146 (FLAG-HMK fusion of amino acids 147-873 of hPrt1) (other)
chain: DADEPSFSDPEDFVDDVSEEELLGDVLKDRPQEADGIDSVIVVDNVPQVGPDRLEKLKNVIHKIFSKFGKITNDFYPEEDGKTKGYIFLEYASPAHAVDAVKNADGYKLDKQHTFRVNLFTDFDKYMTISDEWDIPEKQPFKDLGNLRYWLEEAECRDQYSVIFESGDRTSIFWNDVKDPVSIEERARWTETYVRWSPKGTYLATFHQRGIALWGGEKFKQIQRFSHQGVQLIDFSPCERYLVTFSPLMDTQDDPQAIIIWDILTGHKKRGFHCESSAHWPIFKWSHDGKFFARMTLDTLSIYETPSMGLLDKKSLKISGIKDFSWSPGGNIIAFWVPEDKDIPARVTLMQLPTRQEIRVRNLFNVVDCKLHWQKNGDYLCVKVDRTPKGTQGVVTNFEIFRMREKQVPVDVVEMKETIIAFAWEPNGSKFAVLHGEAPRISVSFYHVKNNGKIELIKMFDKQQANTIFWSPQGQFVVLAGLRSMNGALAFVDTSDCTVMNIAEHYMASDVEWDPTGRYVVTSVSWWSHKVDNAYWLWTFQGRLLQKNNKDRFCQLLWRPRPPTLLSQEQIKQIKKDLKKYSKIFEQKDRLSQSKASKELVERRRTMMEDFRKYRKMAQELYMEQKNERLELRGGVDTDELDSNVDDWEEETIEFFVTEEIIPLGIRSDLEHCAQPCVLWSRGRPAGSRVTPASSLCSLALDCDCAWILPLRHIFVPFSPWCLQWGI
modifications: 32P-labeled with heart muscle kinase at the HMK site (as Far Western probe)
notes: also called FLAG-HMK N90146; hPrt1 N90146; not shown: FLAG-HMK leader of vector pAR90[59/69]
Turning to B1, the binding result is on record as “binds”.
